Reference: patent US20110014246A1 (ACTAVIS GROUP PTC EHF, priority 2008, published 2011)
Counter-ions that a name gives are not always drawn.

Legend:
[1] = as disclosed in U.S. Pat. No. 6,268,533; cited from earlier work
[2] = Miglyol dispersant
Source text: As used herein, “Particle Size Distribution (P.S.D)” means the cumulative volume size distribution of equivalent spherical diameters as determined by laser diffraction in Malvern Master Sizer 2000 equipment or its equivalent.

Row | SMILES | hygroscopicity [1] | Particle size distribution d(0.1) [2] | Particle size distribution d(0.5) [2] | Particle size distribution d(0.9) [2]
1 | COc1ccc(C[C@@H](C)NC[C@H](O)c2ccc(O)c(NC=O)c2)cc1 [L-(+)-tartrate salt of R,R-formoterol] | non-hygroscopic |  |  | 
2 | COc1ccc(C[C@@H](C)NC[C@H](O)c2ccc(O)c(NC=O)c2)cc1 [amorphous arformoterol L-(+)-tartrate, N-[2-hydroxy-5-[(1R)-1-hydroxy-2-[[(1R)-2-(4-methoxyphenyl)-1-methylethyl]amino]ethyl]phenyl]formamide] |  | 9.78 microns | 31.42 microns | 67.44 microns
